Source: article PMC6393609
These are yes or no findings as the source states them, for the method shown. In cells and extracts the contact can be indirect. Some binding calls cover weakened binding; strength is not graded here.

Target: HA–DCNL1 (human), Q96GG9
Experiment: co-IP; anti-HA immunoprecipitation from lysates of HEK293 cells stably expressing mock, HA-DCNL1, HA-DCNL1 (PONY) or HA-DCNL1-Ub^CT; co-precipitated endogenous proteins by immunoblot
Conditions: remark: other sources report otherwise

binding: binds
B1: CUL2, Q13617 1-745 (protein)
chain: MSLKPRVVDFDETWNKLLTTIKAVVMLEYVERATWNDRFSDIYALCVAYPEPLGERLYTETKIFLENHVRHLHKRVLESEEQVLVMYHRYWEEYSKGADYMDCLYRYLNTQFIKKNKLTEADLQYGYGGVDMNEPLMEIGELALDMWRKLMVEPLQAILIRMLLREIKNDRGGEDPNQKVIHGVINSFVHVEQYKKKFPLKFYQEIFESPFLTETGEYYKQEASNLLQESNCSQYMEKVLGRLKDEEIRCRKYLHPSSYTKVIHECQQRMVADHLQFLHAECHNIIRQEKKNDMANMYVLLRAVSTGLPHMIQELQNHIHDEGLRATSNLTQENMPTLFVESVLEVHGKFVQLINTVLNGDQHFMSALDKALTSVVNYREPKSVCKAPELLAKYCDNLLKKSAKGMTENEVEDRLTSFITVFKYIDDKDVFQKFYARMLAKRLIHGLSMSMDSEEAMINKLKQACGYEFTSKLHRMYTDMSVSADLNNKFNNFIKNQDTVIDLGISFQIYVLQAGAWPLTQAPSSTFAIPQELEKSVQMFELFYSQHFSGRKLTWLHYLCTGEVKMNYLGKPYVAMVTTYQMAVLLAFNNSETVSYKELQDSTQMNEKELTKTIKSLLDVKMINHDSEKEDIDAESSFSLNMNFSSKRTKFKITTSMQKDTPQEMEQTRSAVDEDRKMYLQAAIVRIMKARKVLRHNALIQEVISQSRARFNPSISMIKKCIEVLIDKQYIERSQASADEYSYVA
